At least one structure is not confirmed: it was looked up by name or label, or the drawing left a doubt.
Test system: Escherichia coli (live cells) and contaminants originated in UHT homogenized milk
Assay type: cell-based
Details: treatment after LP treatment, 37° C.; amsacrine 10 minutes, others 30 minutes; 7.5×10^6 cfu/ml
Description: Specific procedures are as shown in a) to d) described below.

Q: With `COc1cc(NS(C)(=O)=O)ccc1Nc1c2ccccc2nc2ccccc12` [amsacrine] as the compound, how does the “separation of plotted areas of Escherichia coli (live cells) and contaminants” value read?
A: Its value is “clearly separated”.

From patent US8241866B2, “Method for detection of microorganism and kit for detection of microorganism” (Morinaga Milk Industry Co., Ltd., priority 2005, dated 2012)
